Test in all cases: pull-down; GST pull-down of a protein with the different domains of its partner; which partner was the GST fusion is not told; as described previously (ref. 38)
The target of test [1] is C-terminal domain of JMJD2D (human (HepG2 cDNA)) (UniProt Q6B0I6).
In test [2] the target is ANK domain of NICD1 (human (HepG2 cDNA)) (UniProt P46531).
For test [3], the target named is HMG Box domain of TCF4 (human (HepG2 cDNA)) (UniProt Q9NQB0).

Amino acid sequences for entries named in this document (tags omitted). A change or cut given only in a name is not applied to a line headed by its entry.
UniProt P46531: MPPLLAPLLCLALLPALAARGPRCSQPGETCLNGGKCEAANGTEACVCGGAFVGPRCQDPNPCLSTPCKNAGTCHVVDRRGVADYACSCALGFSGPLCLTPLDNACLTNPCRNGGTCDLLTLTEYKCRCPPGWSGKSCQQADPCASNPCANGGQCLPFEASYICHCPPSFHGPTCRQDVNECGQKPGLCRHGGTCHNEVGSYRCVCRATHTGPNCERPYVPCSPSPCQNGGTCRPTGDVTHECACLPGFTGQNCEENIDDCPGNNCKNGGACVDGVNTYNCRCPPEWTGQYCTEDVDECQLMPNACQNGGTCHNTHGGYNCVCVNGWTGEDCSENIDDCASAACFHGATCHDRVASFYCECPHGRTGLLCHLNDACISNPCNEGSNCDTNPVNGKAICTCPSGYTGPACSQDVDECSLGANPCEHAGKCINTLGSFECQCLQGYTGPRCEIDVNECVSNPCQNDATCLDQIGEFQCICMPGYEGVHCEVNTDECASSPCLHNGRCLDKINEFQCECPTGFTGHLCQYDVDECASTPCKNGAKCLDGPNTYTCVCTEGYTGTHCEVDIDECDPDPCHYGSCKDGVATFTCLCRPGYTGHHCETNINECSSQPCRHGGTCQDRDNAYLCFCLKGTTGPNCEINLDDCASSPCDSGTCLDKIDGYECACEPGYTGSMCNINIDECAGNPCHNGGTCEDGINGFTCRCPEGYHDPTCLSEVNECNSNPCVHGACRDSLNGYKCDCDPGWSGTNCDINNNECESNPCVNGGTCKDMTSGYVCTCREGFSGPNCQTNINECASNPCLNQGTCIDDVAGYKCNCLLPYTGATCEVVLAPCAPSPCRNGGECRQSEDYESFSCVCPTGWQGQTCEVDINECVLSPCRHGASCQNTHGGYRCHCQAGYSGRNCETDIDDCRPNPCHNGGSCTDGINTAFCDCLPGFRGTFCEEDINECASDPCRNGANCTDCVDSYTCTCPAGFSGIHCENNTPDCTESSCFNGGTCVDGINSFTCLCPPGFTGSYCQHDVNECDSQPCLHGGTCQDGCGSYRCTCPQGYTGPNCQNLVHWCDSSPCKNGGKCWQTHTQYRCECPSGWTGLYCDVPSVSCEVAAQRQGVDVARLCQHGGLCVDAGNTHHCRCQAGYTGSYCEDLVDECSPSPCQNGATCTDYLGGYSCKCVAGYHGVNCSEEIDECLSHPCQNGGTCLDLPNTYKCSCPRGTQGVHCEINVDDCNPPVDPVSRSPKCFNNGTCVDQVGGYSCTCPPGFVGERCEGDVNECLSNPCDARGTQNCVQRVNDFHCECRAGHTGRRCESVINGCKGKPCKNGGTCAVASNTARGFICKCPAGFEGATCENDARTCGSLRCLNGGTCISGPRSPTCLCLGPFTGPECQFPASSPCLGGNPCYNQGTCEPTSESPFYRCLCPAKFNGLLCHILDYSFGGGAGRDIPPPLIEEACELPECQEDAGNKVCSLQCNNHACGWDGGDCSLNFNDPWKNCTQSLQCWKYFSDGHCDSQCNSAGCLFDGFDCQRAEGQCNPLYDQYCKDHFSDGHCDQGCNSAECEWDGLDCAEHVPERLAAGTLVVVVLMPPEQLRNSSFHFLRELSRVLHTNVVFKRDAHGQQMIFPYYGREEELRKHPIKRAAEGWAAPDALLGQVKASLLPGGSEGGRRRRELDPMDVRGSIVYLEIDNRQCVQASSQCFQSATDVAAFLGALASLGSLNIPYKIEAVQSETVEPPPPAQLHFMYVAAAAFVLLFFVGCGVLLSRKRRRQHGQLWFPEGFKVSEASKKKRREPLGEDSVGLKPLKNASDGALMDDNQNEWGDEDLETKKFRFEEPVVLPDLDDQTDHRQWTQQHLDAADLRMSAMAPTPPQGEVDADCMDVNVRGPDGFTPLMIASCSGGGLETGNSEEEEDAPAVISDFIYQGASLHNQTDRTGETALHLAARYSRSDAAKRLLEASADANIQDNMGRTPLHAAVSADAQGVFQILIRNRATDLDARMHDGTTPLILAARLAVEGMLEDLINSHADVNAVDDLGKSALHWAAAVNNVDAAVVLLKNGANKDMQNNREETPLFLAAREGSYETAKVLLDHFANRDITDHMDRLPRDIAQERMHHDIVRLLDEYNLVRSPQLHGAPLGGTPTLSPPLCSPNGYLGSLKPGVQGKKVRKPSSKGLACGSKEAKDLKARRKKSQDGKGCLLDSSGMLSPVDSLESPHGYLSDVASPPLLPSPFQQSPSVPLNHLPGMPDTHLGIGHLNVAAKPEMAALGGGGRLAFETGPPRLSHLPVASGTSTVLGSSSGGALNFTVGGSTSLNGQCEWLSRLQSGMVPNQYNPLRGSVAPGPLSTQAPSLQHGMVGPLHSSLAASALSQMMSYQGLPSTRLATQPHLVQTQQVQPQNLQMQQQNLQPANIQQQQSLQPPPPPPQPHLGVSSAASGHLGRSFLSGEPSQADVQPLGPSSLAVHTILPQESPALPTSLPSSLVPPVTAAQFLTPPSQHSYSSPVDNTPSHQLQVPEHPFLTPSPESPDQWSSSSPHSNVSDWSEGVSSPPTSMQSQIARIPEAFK
UniProt Q9NQB0: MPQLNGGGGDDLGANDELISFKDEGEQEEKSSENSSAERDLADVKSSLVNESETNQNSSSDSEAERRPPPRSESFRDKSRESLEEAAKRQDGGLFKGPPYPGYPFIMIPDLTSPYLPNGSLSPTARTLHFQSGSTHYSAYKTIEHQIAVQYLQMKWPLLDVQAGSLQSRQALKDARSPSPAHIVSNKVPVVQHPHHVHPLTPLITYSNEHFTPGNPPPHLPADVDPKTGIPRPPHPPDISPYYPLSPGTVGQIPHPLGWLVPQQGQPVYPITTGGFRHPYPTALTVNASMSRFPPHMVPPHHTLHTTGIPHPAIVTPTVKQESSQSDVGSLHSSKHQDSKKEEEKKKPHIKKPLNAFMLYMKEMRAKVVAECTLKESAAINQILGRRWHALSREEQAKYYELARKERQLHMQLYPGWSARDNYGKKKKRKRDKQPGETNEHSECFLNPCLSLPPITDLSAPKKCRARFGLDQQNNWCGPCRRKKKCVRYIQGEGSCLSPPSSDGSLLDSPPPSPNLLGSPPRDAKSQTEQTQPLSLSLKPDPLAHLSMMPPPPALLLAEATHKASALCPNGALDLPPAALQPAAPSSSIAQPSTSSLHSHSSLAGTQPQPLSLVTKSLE

No constants are given. Whether binding was seen depends on the method and setting. Binding seen in cells or lysates may run through a third protein. Binding can be weak; no strength is given. For part of these data: Sequences can lack the tags named with a protein.

Take “TCF4, construct of the GST pull-down assays (from UniProt Q9NQB0 1-619)”: in test [1], the binding entry was “binds”.

B1: JMJD2D, construct of the GST pull-down assays (enzyme, UniProt Q6B0I6 1-523)
chain: METMKSKANCAQNPNCNIMIFHPTKEEFNDFDKYIAYMESQGAHRAGLAKIIPPKEWKARETYDNISEILIATPLQQVASGRAGVFTQYHKKKKAMTVGEYRHLANSKKYQTPPHQNFEDLERKYWKNRIYNSPIYGADISGSLFDENTKQWNLGHLGTIQDLLEKECGVVIEGVNTPYLYFGMWKTTFAWHTEDMDLYSINYLHLGEPKTWYVVPPEHGQRLERLARELFPGSSRGCGAFLRHKVALISPTVLKENGIPFNRITQEAGEFMVTFPYGYHAGFNHGFNCAEAINFATPRWIDYGKMASQCSCGEARVTFSMDAFVRILQPERYDLWKRGQDRAVVDHMEPRVPASQELSTQKEVQLPRRAALGLRQLPSHWARHSPWPMAARSGTRCHTLVCSSLPRRSAVSGTATQPRAAAVHSSKKPSSTPSSTPGPSAQIIHPSNGRRGRGRPPQKLRAQELTLQTPAKRPLLAGTTCTASGPEPEPLPEDGALMDKPVPLSPGLQHPVKASGCSWAPVP
As for B1, the binding entry in test [2] and in test [3] was “binds” in each case.

Source of the values: publication PMC7948496.
